Reference: patent US12225917B2 (priority 2017, dated 2025)

Experiment: Feed palatability, feed and water consumption and bird productivity study (Example 2): feed intake, water intake, bodyweight, FCR
Type: in vivo, broiler chickens
Description: A follow-up study to determine the feed palatability, feed and water consumption and bird productivity following incorporation of a single formulation of IRP001 hemisulfate salt (unmasked) when offered to broiler chickens in-feed or in-water. The study explores the optimal treatment regime in terms of treatment start date.
Phase 1: On receipt, two hundred and seventy (270) day-old commercial broiler chickens were allocated sequentially as they are received into sixteen (16) individual floor pens, each of 16 or 17 birds, on Day 0.
Phase 2: On receipt, the ninety (90) day-old commercial broiler chickens were allocated sequentially as they are received into four (4) individual floor pens, each of 22 or 23 birds, on Day 22.
Feed intake, water intake, weight gain and mortality were used as outcome parameters.
Individual daily feed intake and individual daily water intake data by pen and then by treatment group were calculated for Phases 1 and 2 (and for the entire trial for the birds in Group/Pen 2, 15 and 16 that continue through both Phases) using figures for total feed and water provided each day to each pen divided by the number of birds in each pen. Where errors in weighing, feeding/watering or recording (or other unexplained losses of feed and water) had occurred means were adjusted by using the mean value for the same pen on the 1-2 days either side of the apparent error. Similarly, group mean bodyweights were calculated for Phase 1 using total weight/total no. birds for Day 0 and individual weights from Days 7, 14, 21, 28, 35 and 42. Total (individual) feed consumed was calculated per treatment and feed conversion ratios per treatment calculated using the expression: total (individual) feed/total (individual) weight gain.
Individual daily feed intake and individual daily water intake were statistically compared by treatment within each phase and between Pens 2 and 15/16 over both phases using a linear model:— (Parameter)˜Treatment+Day+Pen+Treatment:Day and Tibco SPOTFIRE S+ 8.2 (2010). ‘Day’ was included in the model to allow for changes over time, ‘Pen’ as each treatment consisted of 2 pens while an interaction term ‘Treatment:Day’ was included to allow for treatment x time effects. Model suitability was confirmed by inspection of residual plots; in all instances the statistical model was appropriate.

[1] = Phase 1+2, Pen 2 untreated vs 15/16 treated in-water Day 6-42, significant at p<0.05
[2] = Phase 2, chicks received day 22, IVP 2 g/kg in-feed Day 25-42, Group-Pen 19, 20
[3] = Phase 2 summary, IVP 1 g/L in-water D6-21 (42), Group-Pen 15, 16

| Compound | feed eaten more by untreated birds over the total trial [1] [kg] | water intake over the total trial [1] | FCR (Phase 1, IVP 1 g/L in-water Day 1-21, Group-Pen 5, 6) | Gain (Phase 1, IVP 1 g/L in-water Day 5-21, Group-Pen 13, 14) [kg] | FCR (Phase 1, IVP 1 g/L in-water Day 6-21 (42), Group-Pen 15, 16) | Group mean bodyweight Day 28 [2] [g] | Group mean bodyweight Day 35 [2] [g] | Group mean bodyweight Day 42 [2] [g] | Group mean bodyweight Day 28 [3] [kg] | Group mean bodyweight Day 35 [3] [kg] | Group mean bodyweight Day 42 [3] [kg] |
| --- | --- | --- | --- | --- | --- | --- | --- | --- | --- | --- | --- |
| berberine hemisulfate [IRP001 sulfate] | ~0.14 | untreated birds drinking more water | – | – | – | – | – | – | – | – | – |
| COc1ccc2cc3[n+](cc2c1OC)CCc1cc2c(cc1-3)OCO2 [IRP001 chloride, berberine chloride] | – | – | 1.50 | 0.680 | 1.40 | 112.4 | 273.6 | 614.9 | 1.16 | 1.66 | 2.39 |
